SMILES strings stand for the structures. The list shows only some results of the screen, not a fair sample: it gathers tests that were run many times, whatever their T/C, doses with no T/C, and many T/C values between a quarter and a half above the control. Other doses and runs of a compound stand elsewhere. T/C gives the treated animals as a percentage of the vehicle group. Some doses have a count of surviving animals in place of a T/C: the source files T/C as zero there, which appears to mark a toxic dose or a test without result, not a measured value. Some doses without a T/C left all or most animals alive at the check, yet need not have been tolerated: the source hardly ever lists a survival T/C far under the control, and the zero likely stands for such cases as well. Survivors were counted at the toxicity check, usually on the fifth day, unless a day is given; later deaths do not show. Schedule codes are those of the source, taken here to give the interval after Q, in days (D) or hours (H), and the number of doses after X. Some entries hold several experiments; the results are listed from low to high. Where survival is the endpoint, the PubChem record calls one and a half times the control and up active, and a quarter to a half above the control has no call in these data; cut-offs in other NCI protocols can differ. Some T/C values carry the count of animals alive at the toxicity check (mostly the fifth day); without a count, all were alive then.

In the experiment the test system is P388 leukemia ip, CD2F1 mice, survival T/C. Kind of experiment: NCI In Vivo Anticancer Drug Screen. Data for tumor model P388 Leukemia (intraperitoneal) in CD2F1 (CDF1) mice. Conditions: T/C endpoint: median survival time, higher T/C = longer survival.
Where [1] appears, read: dose: 240.0 mg/kg/injection, schedule: Q01DX005 (ip), vehicle: saline with Tween-80.
Setting [2] is: dose: 120.0 mg/kg/injection, schedule: Q01DX005 (ip), vehicle: saline with Tween-80.
Setting [3] is: dose: 50.0 mg/kg/injection, schedule: Q01DX009 (ip), vehicle: saline with Tween-80.
The mark [4] stands for this setting: dose: 100.0 mg/kg/injection, schedule: Q01DX009 (ip), vehicle: saline with Tween-80.
Where [5] appears, read: dose: 200.0 mg/kg/injection, schedule: Q01DX009 (ip), vehicle: saline with Tween-80.
[6] abbreviates: dose: 200.0 mg/kg/injection, schedule: Q01DX005 (ip), vehicle: Klucel (hydroxypropylcellulose) (HPC).
Where [7] appears, read: dose: 12.5 mg/kg/injection, schedule: Q01DX009 (ip), vehicle: saline with Tween-80.
Where [8] appears, read: dose: 25.0 mg/kg/injection, schedule: Q01DX009 (ip), vehicle: saline with Tween-80.
Setting [9] is: dose: 400.0 mg/kg/injection, schedule: Q01DX009 (ip), vehicle: saline with Tween-80.

As for `CC1(C)Cc2[nH]c3ccccc3c2C(C)(C)N1`, the survivor count under setting [1] was 0 of 6.

Consider `C(=N\N=C1c2ccccc2-c2ccccc21)/c1ccc2ccc3cccc4ccc1c2c34`, for which the survivor count is reported as 6 of 6 (dose: 60.0 mg/kg/injection, schedule: Q01DX005 (ip), vehicle: saline with Tween-80) and 6 of 6 under setting [2].

With `O=C([Se][Se]C(=O)c1ccccc1)c1ccccc1`, the survivor count under setting [3] is listed as 0 of 6, the survivor count under setting [4] is reported as 0 of 6 and the survivor count under setting [5] is given as 0 of 6.

`COc1cc(C2C(C#N)=CNc3nc(N)nc(N)c32)cc(OC)c1OC` (configuration not stated): the T/C runs as follows: under setting [2], 126 % of control [5 of 6 alive]; under setting [1], 137 % of control.

Turning to `CN(N=O)C(=O)Nc1cc(=O)[nH]c(SCc2ccccc2)n1`, the T/C is, setting by setting: (dose: 50.0 mg/kg/injection, schedule: Q01DX005 (ip), vehicle: Klucel (hydroxypropylcellulose) (HPC)) 134 % of control; (dose: 100.0 mg/kg/injection, schedule: Q01DX005 (ip), vehicle: Klucel (hydroxypropylcellulose) (HPC)) 143 % of control. In addition, the survivor count under setting [6] is on record as 3 of 6.

`CNc1ccc2c(cc1=O)C(NC(C)=O)CCc1cc(OC)c(OC)c(OC)c1-2` (configuration not stated): the T/C runs as follows: (dose: 0.04 mg/kg/injection, schedule: Q01DX009 (ip), vehicle: Klucel (hydroxypropylcellulose) (HPC)) 126 % of control; (dose: 0.08 mg/kg/injection, schedule: Q01DX009 (ip), vehicle: Klucel (hydroxypropylcellulose) (HPC)) 148 % of control; (dose: 0.12 mg/kg/injection, schedule: Q01DX009 (ip), vehicle: Klucel (hydroxypropylcellulose) (HPC)) 141 % of control; (dose: 0.16 mg/kg/injection, schedule: Q01DX009 (ip), vehicle: Klucel (hydroxypropylcellulose) (HPC)) 142 % of control. Also, the survivor count is 4 of 6 (dose: 0.25 mg/kg/injection, schedule: Q01DX009 (ip), vehicle: Klucel (hydroxypropylcellulose) (HPC)); 5 of 6 (dose: 0.31 mg/kg/injection, schedule: Q01DX009 (ip), vehicle: Klucel (hydroxypropylcellulose) (HPC)); 1 of 6 and 5 of 6 (dose: 0.5 mg/kg/injection, schedule: Q01DX009 (ip), vehicle: Klucel (hydroxypropylcellulose) (HPC)); 4 of 6 (dose: 0.62 mg/kg/injection, schedule: Q01DX009 (ip), vehicle: Klucel (hydroxypropylcellulose) (HPC)); 1 of 6 and 3 of 6 (dose: 1.0 mg/kg/injection, schedule: Q01DX009 (ip), vehicle: Klucel (hydroxypropylcellulose) (HPC)); 2 of 6 (dose: 1.25 mg/kg/injection, schedule: Q01DX009 (ip), vehicle: Klucel (hydroxypropylcellulose) (HPC)). The survivor count is, setting by setting: (dose: 2.0 mg/kg/injection, schedule: Q01DX009 (ip), vehicle: Klucel (hydroxypropylcellulose) (HPC)) 0 of 6; (dose: 2.5 mg/kg/injection, schedule: Q01DX009 (ip), vehicle: Klucel (hydroxypropylcellulose) (HPC)) 0 of 6; (dose: 5.0 mg/kg/injection, schedule: Q01DX009 (ip), vehicle: Klucel (hydroxypropylcellulose) (HPC)) 0 of 6; (dose: 10.0 mg/kg/injection, schedule: Q01DX009 (ip), vehicle: Klucel (hydroxypropylcellulose) (HPC)) 0 of 6; (dose: 20.0 mg/kg/injection, schedule: Q01DX009 (ip), vehicle: Klucel (hydroxypropylcellulose) (HPC)) 0 of 6; (dose: 40.0 mg/kg/injection, schedule: Q01DX009 (ip), vehicle: Klucel (hydroxypropylcellulose) (HPC)) 0 of 6.

In the case of `CCC1=C[C@H]2CN(CCc3c([nH]c4ccccc34)[C@@](C(=O)OC)(c3cc4c(cc3OC)N(C)[C@H]3[C@@](O)(C(=O)NCCSC)[C@H](O)[C@]5(CC)C=CCN6CC[C@]43[C@@H]65)C2)C1`, the T/C (dose: 1.0 mg/kg/injection, schedule: Q01DX001 (ip), vehicle: water) is 125 % of control; the T/C (dose: 4.0 mg/kg/injection, schedule: Q01DX001 (ip), vehicle: water) is 135 and 139 % of control; the T/C (dose: 8.0 mg/kg/injection, schedule: Q01DX001 (ip), vehicle: water) was 148 and 148 % of control [5 of 6 alive].

Take `ClC1=C(Cl)C2(Cl)C3C4CC(C5OC45)C3C1(Cl)C2(Cl)Cl` (configuration not stated): the T/C under setting [7] is 135 % of control. Moreover, the survivor count under setting [7] is recorded as 5 of 6; the survivor count under setting [8] is 1 of 6 and 5 of 6; the survivor count under setting [3] is 2 of 6; the survivor count under setting [4] is 1 of 6; the survivor count under setting [5] is listed as 1 of 6.

In the case of `COc1ccc(C2CCc3cc4c(cc3C2=O)OCO4)cc1OC` (configuration not stated), the survivor count (dose: 100.0 mg/kg/injection, schedule: Q04DX003 (ip), vehicle: saline with Tween-80) was 6 of 6 and the survivor count (dose: 400.0 mg/kg/injection, schedule: Q04DX003 (ip), vehicle: saline with Tween-80) was 6 of 6.

Regarding `CC12CCC3C(C1)C(C(=O)O2)C(=O)OC3(C)C` (configuration not stated), the survivor count (dose: 400.0 mg/kg/injection, schedule: Q01DX009 (ip), vehicle: Klucel (hydroxypropylcellulose) (HPC)) is recorded as 0 of 6.

Turning to `[Cl][Hg][CH]1CCC2OC1CC[CH]2[Hg][Cl]` (configuration not stated), the T/C (dose: 6.25 mg/kg/injection, schedule: Q01DX009 (ip), vehicle: saline with Tween-80) was 127 % of control. The survivor count under setting [7] is given as 1 of 6; the survivor count under setting [8] is 0 of 6; the survivor count under setting [4] is 0 of 6; the survivor count under setting [5] was 0 of 6; the survivor count under setting [9] is recorded as 0 of 6.

`COc1cc2cc3c(c(O)c2c(O)c1/C=C/C(C)C)C(=O)CC(C)(OC(C)=O)C3` (configuration not stated): the survivor count reads like this: (dose: 10.0 mg/kg/injection, schedule: Q01DX005 (ip), vehicle: Klucel (hydroxypropylcellulose) (HPC)) 5 of 5; (dose: 20.0 mg/kg/injection, schedule: Q01DX005 (ip), vehicle: Klucel (hydroxypropylcellulose) (HPC)) 5 of 5; (dose: 40.0 mg/kg/injection, schedule: Q01DX005 (ip), vehicle: Klucel (hydroxypropylcellulose) (HPC)) 2 of 5.

Consider `C=CC(=NC(C)(C)C)Nc1ccccc1C#N`, for which the survivor count is on record as 6 of 6 under setting [8], 0 of 6 under setting [3], 0 of 6 under setting [4] and 0 of 6 under setting [5].

For the compound `OC1COc2ccccc2OCCOCCOc2ccccc2OC1`, the survivor count is on record as 1 of 6 under setting [2] and 0 of 6 under setting [1].

Take `O=C(Cc1nc2ccccc2nc1CC(=O)c1ccncc1)c1ccncc1`: the survivor count (dose: 25.0 mg/kg/injection, schedule: Q01DX005 (ip), vehicle: saline with Tween-80) was 6 of 6; the survivor count (dose: 50.0 mg/kg/injection, schedule: Q01DX005 (ip), vehicle: saline with Tween-80) is recorded as 6 of 6; the survivor count (dose: 100.0 mg/kg/injection, schedule: Q01DX005 (ip), vehicle: saline with Tween-80) is listed as 6 of 6; the survivor count under setting [2] is on record as 6 of 6.

`COc1cccc2c1C(=O)c1c(O)c3c(c(O)c1C2=O)CC(O)(C(=O)CO)CC3OC1CC(N)C(O)C(C)O1` (configuration not stated) (tested in a mixture with another compound): the survivor count reads like this: (dose: 3.13 mg/kg/injection, schedule: Q01DX009 (ip), vehicle: other) 6 of 6; (dose: 12.5 mg/kg/injection, schedule: Q01DX009 (ip), vehicle: other) 5 of 6; (dose: 50.0 mg/kg/injection, schedule: Q01DX009 (ip), vehicle: other) 4 of 6.

Take `Nc1ccc(S(=O)(=O)Nc2nc(-c3ccccc3)cc(-c3ccccc3O)n2)cc1`: the survivor count under setting [1] is 6 of 6.

Consider `CCC(C)N(C)/N=N/c1nc[nH]c1C(N)=O` (configuration not stated), for which the survivor count under setting [9] is reported as 3 of 6.

As for `Cc1cc(C)c(S(=O)(=O)O)c(C)c1Nc1ccc(Nc2c(C)cc(C)c(S(=O)(=O)O)c2C)c2c1C(=O)c1ccccc1C2=O`, the survivor count under setting [5] is 3 of 6.

As for `Nc1ncc2c(=O)c3c(ccc4ccccc43)oc2n1`, the survivor count is, setting by setting: under setting [3], 6 of 6; under setting [5], 6 of 6.

Regarding `CN(C)CCCNC(=S)C(=S)NCCCN(C)C`, the survivor count under setting [6] is given as 6 of 6.

Source of the values: PubChem BioAssay AID330 (DTP/NCI, 2004).
